Results as given in patent US6251897A, “6-phenyltetrahydro-1,3-oxazin-2-one derivative and pharmaceutical composition containing the same” (Nikken Chemicals Co., LTD, priority 1996, dated 2001).
Some entries share one result that the patent states for a list of compounds.

Test: Acute toxicity test
Assay type: in vivo
Settings: 30 mg/kg intraperitoneally

SMILES	death / survival rate of the next day
COc1ccc(C2CCNC(=O)O2)cc1O[C@H]1CC[C@H](c2ccccc2)CC1 (relative stereo) [Compound No. 78, 6-[4-methoxy-3-(trans-4-phenylcyclohexyloxy)phenyl]-3,4,5,6-tetrahydro-2H-1,3-oxazin-2-one]	No death was observed
COc1ccc(C2CCN(C)C(=O)O2)cc1O[C@H]1CC[C@H](c2ccccc2)CC1 (relative stereo) [Compound No. 79, 6-[4-methoxy-3-(trans-4-phenylcyclohexyloxy)phenyl]-3-methyl-3,4,5,6-tetrahydro-2H-1,3-oxazin-2-one]	No death was observed
COc1ccc([C@H]2OC(=O)NC[C@H]2c2ccccc2)cc1OC1CCCC1 (relative stereo) [Compound No. 91, rel-(5R,6S)-6-(3-cyclopentyloxy-4-methoxyphenyl)-5-phenyl-3,4,5,6-tetrahydro-2H-1,3-oxazin-2-one]	No death was observed
COc1ccc([C@@H]2OC(=O)NC[C@H]2c2ccccc2)cc1OC1CCCC1 (relative stereo) [Compound No. 92, rel-(5R,6R)-6-(3-cyclopentyloxy-4-methoxyphenyl)-5-phenyl-3,4,5,6-tetrahydro-2H-1,3-oxazin-2-one]	No death was observed
COc1ccc(C2CCNC(=O)O2)cc1OC (stereo not shown) [Compound No. 1, 6-(3,4-dimethoxyphenyl)-3,4,5,6-tetrahydro-2H-1,3-oxazin-2-one]	No death was observed
COc1ccc(C2CCNC(=O)O2)cc1OC1CCCC1 (stereo not shown) [Compound No. 2, 6-(3-cyclopentyloxy-4-methoxyphenyl)-3,4,5,6-tetrahydro-2H-1,3-oxazin-2-one]	No death was observed
CCCCOc1cc(C2CCNC(=O)O2)ccc1OC (stereo not shown) [Compound No. 3, 6-(3-butoxy-4-methoxyphenyl)-3,4,5,6-tetrahydro-2H-1,3-oxazin-2-one]	No death was observed
COc1ccc(C2CCNC(=O)O2)cc1OCC1CC1 (stereo not shown) [Compound No. 4, 6-(3-cyclopropylmethyloxy-4-methoxyphenyl)-3,4,5,6-tetrahydro-2H-1,3-oxazin-2-one]	No death was observed
COc1ccc(C2(C)CCNC(=O)O2)cc1OC (stereo not shown) [Compound No. 5, 6-(3,4-dimethoxyphenyl)-6-methyl-3,4,5,6-tetrahydro-2H-1,3-oxazin-2-one]	No death was observed
COc1ccc(C2(C)CCNC(=O)O2)cc1OC1CCCC1 (stereo not shown) [Compound No. 6, 6-(3-cyclopentyloxy-4-methoxyphenyl)-6-methyl-3,4,5,6-tetrahydro-2H-1,3-oxazin-2-one]	No death was observed
COc1ccc(C2(c3ccccc3)CCNC(=O)O2)cc1OC1CCCC1 (stereo not shown) [Compound No. 7, 6-(3-cyclopentyloxy-4-methoxyphenyl)-6-phenyl-3,4,5,6-tetrahydro-2H-1,3-oxazin-2-one]	No death was observed
COc1ccc(C2CCN(C)C(=O)O2)cc1OC (stereo not shown) [Compound No. 8, 6-(3,4-dimethoxyphenyl)-3-methyl-3,4,5,6-tetrahydro-2H-1,3-oxazin-2-one]	No death was observed
COc1ccc(C2CCN(Cc3ccccc3)C(=O)O2)cc1OC (stereo not shown) [Compound No. 9, 3-benzyl-6-(3 4-dimethoxyphenyl)-3,4,5,6-tetrahydro-2H-1,3-oxazin-2-one]	No death was observed
COc1ccc(C2CCN(C)C(=O)O2)cc1OC1CCCC1 (stereo not shown) [Compound No. 10, 6-(3-Cyclopentyloxy-4-methoxyphenyl)-3-methyl-3,4,5,6-tetrahydro-2H-1,3-oxazin-2-one]	No death was observed
COc1ccc(C2CCN(Cc3ccc(Br)cc3)C(=O)O2)cc1OC1CCCC1 (stereo not shown) [Compound No. 11, 3-(4-bromobenzyl)-6-(3-cyclopentyloxy-4-methoxyphenyl)-3,4,5,6-tetrahydro-2H-1,3-oxazin-2-one]	No death was observed
COc1ccc(C2CCN(Cc3ccc4ccccc4n3)C(=O)O2)cc1OC1CCCC1 (stereo not shown) [Compound No. 12, 6-(3-cyclopentyloxy-4-methoxyphenyl)-3-(2-quinolylmethyl)-3,4,5 6-tetrahydro-2H-1,3-oxazin-2-one]	No death was observed
COc1ccc(C2CCN(Cc3cccc4ccccc34)C(=O)O2)cc1OC1CCCC1 (stereo not shown) [Compound No. 13, 6-(3-cyclopentyloxy-4-methoxyphenyl)-3-(1-naphthylmethyl)-3,4,5,6-tetrahydro-2H-1 3-oxazin-2-one]	No death was observed
COc1ccc(C2CCN(Cc3ccncc3)C(=O)O2)cc1OC1CCCC1 (stereo not shown) [Compound No. 14, 6-(3-cyclopentyloxy-4-methoxyphenyl)-3-(4-pyridylmethyl)-3,4,5,6-tetrahydro-2H-1,3-oxazin-2-one]	No death was observed
COc1ccc(C2CCN(Cc3ccc4ccccc4c3)C(=O)O2)cc1OC1CCCC1 (stereo not shown) [Compound No. 15, 6-(3-cyclopentyloxy-4-methoxyphenyl)-3-(2-naphthylmethyl)-3,4,5,6-tetrahydro-2H-1,3-oxazin-2-one]	No death was observed

SMILES	death / survival rate of the next day
COc1ccc(C2CCN(Cc3ccccn3)C(=O)O2)cc1OC1CCCC1 (stereo not shown) [Compound No. 16]	No death was observed
CCCCN1CCC(c2ccc(OC)c(OC3CCCC3)c2)OC1=O (stereo not shown) [Compound No. 17, 3-butyl-6-(3-cyclopentyloxy-4-methoxyphenyl)-3,4,5,6-tetrahydro-2H-1,3-oxazin-2-one]	No death was observed
COc1ccc(C2CCN(C(=O)c3ccccc3)C(=O)O2)cc1OC1CCCC1 (stereo not shown) [Compound No. 18, 3-benzoyl-6-(3-cyclopentyloxy-4-methoxyphenyl)-3,4,5,6-tetrahydro-2H-1,3-oxazin-2-one]	No death was observed
CCOC(=O)CN1CCC(c2ccc(OC)c(OC3CCCC3)c2)OC1=O (stereo not shown) [Compound No. 19, 6-(3-cyclopentyloxy-4-methoxyphenyl)-3-(ethoxycarbonylmethyl)-3,4,5,6-tetrahydro-2H-1,3-oxazin-2-one]	No death was observed
COc1ccc(C2CCN(Cc3cccnc3)C(=O)O2)cc1OC1CCCC1 (stereo not shown) [Compound No. 20, 6-(3-cyclopentyloxy-4-methoxyphenyl)-3-(3-pyridylmethyl)-3,4,5,6-tetrahydro-2H-1,3-oxazin-2-one]	No death was observed
COc1ccc(C2(C)CCN(C)C(=O)O2)cc1OC1CCCC1 (stereo not shown) [Compound No. 21, 6-(3-cyclopentyloxy-4-methoxyphenyl)-3,6-dimethyl-3,4,5,6-tetrahydro-2H-1,3-oxazin-2-one]	No death was observed
COc1ccc(C2(C)CCN(Cc3ccncc3)C(=O)O2)cc1OC1CCCC1 (stereo not shown) [Compound No. 22, 6-(3-cyclopentyloxy-4-methoxyphenyl)-6-methyl-3-(4-pyridylmethyl)-3,4,5,6-tetrahydro-2H-1,3-oxazin-2-one]	No death was observed
COc1ccc(C2CCNC(=O)O2)cc1OCCc1ccccc1 (stereo not shown) [Compound No. 23, 6-(4-methoxy-3-phenethyloxyphenyl)-3,4,5,6-tetrahydro-2H-1,3-oxazin-2-one]	No death was observed
COc1ccc(C2CCNC(=O)O2)cc1OC1Cc2ccccc2C1 (stereo not shown) [Compound No. 24, 6-[3-(2-indanyloxy)-4-methoxyphenyl]-3,4,5,6-tetrahydro-2H-1,3-oxazin-2-one]	No death was observed
COc1ccc(C2CCN(C)C(=O)O2)cc1OC1Cc2ccccc2C1 (stereo not shown) [Compound No. 25, 6-[3-(2-indanyloxy)-4-methoxyphenyl]-3-methyl-3,4,5,6-tetrahydro-2H-1,3-oxazin-2-one]	No death was observed
CCC1(c2ccc(OC)c(OC3CCCC3)c2)CCNC(=O)O1 (stereo not shown) [Compound No. 26, 6-(3-cyclopentyloxy-4-methoxyphenyl)-6-ethyl-3,4,5,6-tetrahydro-2H-1,3-oxazin-2-one]	No death was observed
COc1ccc(C2(c3nccs3)CCNC(=O)O2)cc1OC (stereo not shown) [Compound No. 27, 6-(3,4-dimethoxyphenyl)-6-(2-thiazolyl)-3,4,5,6-tetrahydro-2H-1,3-oxazin-2-one]	No death was observed
CCN1CCC(c2ccc(OC)c(OC3CCCC3)c2)OC1=O (stereo not shown) [Compound No. 28, 6-(3-cyclopentyloxy-4-methoxyphenyl)-3-ethyl-3,4,5,6-tetrahydro-2H-1,3-oxazin-2-one]	No death was observed
COc1ccc(C2(c3cccs3)CCNC(=O)O2)cc1OC1CCCC1 (stereo not shown) [Compound No. 29, 6-(3-cyclopentyloxy-4-methoxyphenyl)-6-(2-thienyl)-3,4,5,6-tetrahydro-2H-1,3-oxazin-2-one]	No death was observed
CCCCC1(c2ccc(OC)c(OC3CCCC3)c2)CCNC(=O)O1 (stereo not shown) [Compound No. 30, 6-butyl-6-(3-cyclopentyloxy-4-methoxyphenyl)-3,4,5,6-tetrahydro-2H-1,3-oxazin-2-one]	No death was observed
COc1ccc(C2(c3nccs3)CCNC(=O)O2)cc1OC1CCCC1 (stereo not shown) [Compound No. 31, 6-(3-cyclopentyloxy-4-methoxyphenyl)-6-(2-thiazolyl)-3,4,5,6-tetrahydro-2H-1,3-oxazin-2-one]	No death was observed
COc1ccc(C2CCN(CCN3CCCCC3)C(=O)O2)cc1OC1CCCC1 (stereo not shown) [Compound No. 32, 6-(3-cyclopentyloxy-4-methoxyphenyl) -3-[2-(1-piperidyl)ethyl]-3,4,5,6-tetrahydro-2H-1,3-oxazin-2-one]	No death was observed
COc1ccc(C2CCN(CCN3CCOCC3)C(=O)O2)cc1OC1CCCC1 (stereo not shown) [Compound No. 33, 6-(3-cyclopentyloxy-4-methoxyphenyl)-3-[2-(4-morpholino)ethyl]-3,4,5,6-tetrahydro-2H-1,3-oxazin-2-one]	No death was observed
